The campaign covered roughly 340,000 compounds. About 170 (0.05%) were called active. This list was built around the results that the source calls inconclusive (neither active nor inactive); the mix of calls is not that of the screen. The call rests on the fitted dose curve; in most records, active means well fitted inhibition curve with a large enough effect in the signal ratio, with a control signal flat (not every such curve was filed as active); inconclusive means small, poorly fitted or top-dose-only effect, or effect the other way, or a change in a side signal; inactive means flat fitted curve, though single readings scatter; the % refers to the signal ratio. Where the call is inconclusive, the potency comes from a doubtful curve fit.
Assay: qHTS Assay to Find Inhibitors of Chronic Active B-Cell Receptor Signaling;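 on activity change, negative = inhibition: plate controls were basal doxycycline-induced cells for no effect and cells given 10 µM MG132 for full effect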
Settings: ABC-DLBCL IkBa-CBG/CBR reporter, luminescence ratio (green luciferase fused to IkBa over red control in TMD8 lymphoma cells), 4 h; activity change, negative = inhibition: at 46.1 µM (top of the series)
Outline: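 Doxycycline induced both beetle luciferases in TMD8 lymphoma cells; IKK-driven degradation limits the IkappaBalpha-fused green signal, while red luminescence normalises for cell number and nonspecific effects. Compounds tested up to 46 uM, 4 hrs.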
Potency means the concentration at half of the fitted maximal effect.

Compound | activity change, negative = inhibition | Potency
CCn1c(/C(C#N)=C(\O)CCc2ccccc2)nc2ccccc21 | inconclusive: 22.5% | 
Cc1ccccc1Cc1c(C)nc2nc(SCC(=O)NCCCN3CCCCC3)nn2c1C | inactive: 0.63% | 
C/C(=N\NC(=O)C(C)Nc1cccc(Cl)c1)c1ccc([N+](=O)[O-])cc1 (configuration not stated) | inactive: -2.46% | 
O=C(NCc1ccc2c(c1)OCO2)c1ccc(CS(=O)(=O)c2ccc(Br)cc2)o1 | inconclusive: -22.8% | 
CC(C)c1ccccc1NC(=S)NC(=O)C1CCCCC1 | inactive: 5.53% | 
O=C(Nc1ccc(OC(F)F)cc1)c1ccccn1 |  | inconclusive: 2.24 µM [falling, full curve]
Nc1nc(SCC(=O)C23CC4CC(CC(C4)C2)C3)n[nH]1 | inactive: -1.69% | 
O=C(COC(=O)/C=C/c1ccccc1)NC1CCCCC1 | inactive: 4.56% | 
CC1CCCCN1CCCNC(=O)C1CCN(c2nnc(-n3cccc3)s2)CC1 (configuration not stated) | inactive: -3.18% | 
COc1ccc(NC(C)=O)cc1S(=O)(=O)N1CCN(C/C=C/c2ccccc2)CC1 |  | inconclusive: 8.91 µM [falling, partial curve]
Cc1ccc(C(C)C)c(OCC(=O)NN2C(=O)c3ccccc3C2=O)c1 |  | inconclusive: 35.5 µM [falling, partial curve, poor fit]
COc1cc(/C=C/C(=O)OCC(=O)Nc2ccc(Cl)cn2)ccc1O | inactive: -1.28% | 
COc1ccc(C(C)NS(=O)(=O)Cc2ccccc2)cc1 (configuration not stated) | inconclusive: 4.43% | 
O=C(C1CC(c2ccc(F)cc2)=NO1)N1CCCc2ccccc21 (configuration not stated) | inconclusive: 8.67% | 
c1cncc(-c2nnc3n2N=C(c2cccs2)CS3)c1 | inconclusive: -27.8% | 
CCC(C)(C)n1nnnc1C(c1ccc2ncccc2c1)N1CCCCCC1 (configuration not stated) | inactive: -0.386% | 
COC(=O)Nc1ccc(S(=O)(=O)N2CCCCC2C(=O)O)cc1 (configuration not stated) | inactive: 1.49% | 
O=C(COC(=O)c1c[nH]c(=O)[nH]c1=O)Nc1cccc([N+](=O)[O-])c1 | inactive: -0.119% | 
Cc1ccccc1CNC(=O)COc1ccccc1 | inactive: -8.75% | 
CC(=O)N1c2ccc(S(=O)(=O)NCC3CCC(C(=O)Nc4cc(C)ccn4)CC3)cc2CC1C (configuration not stated) |  | inconclusive: 35.5 µM [rising, partial curve, poor fit]
CC1C(c2ccccc2)N(C)CCC12NC(=O)NC2=O (configuration not stated) | inconclusive: 7.26% | 

Sorted by molar mass (largest number first): part of the list above.
Compound | activity change, negative = inhibition | Potency
CC1CCCCN1CCCNC(=O)C1CCN(c2nnc(-n3cccc3)s2)CC1 (configuration not stated) | inactive: -3.18% | 
COc1ccc(C(C)NS(=O)(=O)Cc2ccccc2)cc1 (configuration not stated) | inconclusive: 4.43% | 
O=C(COC(=O)/C=C/c1ccccc1)NC1CCCCC1 | inactive: 4.56% | 

Next compounds:

Compound | activity change, negative = inhibition | Potency
Cc1nc(/C=C/c2ccccc2)cc(/C=C/c2ccccc2)n1 | inconclusive: 22% | 
CCOC(=O)c1cnc2ccccc2c1Nc1cccc(C(=O)O)c1 | inactive: 10.1% | 
N=c1sccn1CC(=O)Nc1cccc2ccccc12 |  | inconclusive: 6.51 µM [rising, single point]
COCC(C)n1c(C)cc(C(=O)CSc2ccc(NC(C)=O)cc2)c1C (configuration not stated) | inconclusive: -13.9% | 
c1ccc(C2=Nc3ccccc3NC(c3ccccc3)C2)cc1 (configuration not stated) | inconclusive: -6.74% | 
O=C(N/N=C/C=C\c1ccccc1[N+](=O)[O-])c1cc(-c2ccccc2)nc2ccccc12 | inactive: -7.45% | 
CCCN(C(=O)C(=O)Nc1ccc2nc3n(c(=O)c2c1)CCCCC3)c1ccc(OCC)cc1 | inactive: 14.3% | 
c1ccc(Oc2ccc(-c3ccn[nH]3)cc2)cc1 | inconclusive: -15.6% | 
Cc1ccc(/C=N/NC(=O)c2n[nH]c3c2CCCC3)cc1 |  | inconclusive: 0.501 µM [falling, full curve]
N=C1C(c2nc3ccccc3c(=O)[nH]2)=C(O)CN1CCc1ccccc1 | inactive: 16.5% | 
CCc1ccccc1N1CCN(S(=O)(=O)c2ccc(F)c(C)c2)CC1 | inactive: 17.9% | 
O=C(c1ccccc1)C1CN(Cc2ccccc2)CCC1(O)c1ccccc1 (configuration not stated) |  | inconclusive: 14.1 µM [rising, single point]
O=C(O)CC/C(=N/Nc1ncc(C(F)(F)F)cc1Cl)C(=O)O | inactive: -2.32% | 
COc1ccc(-n2nnnc2-c2cccc(OC)c2)cc1 |  | inconclusive: 25.9 µM [falling, single point]
CCn1c(SCC(=O)c2ccc3c(c2)Cc2ccccc2-3)nnc1-c1ccc(N)cc1 | inconclusive: 25.4% | 
CCOC(=O)C1(Cc2ccccc2Cl)CCN(C(=O)CN2CCOC2=O)CC1 | inconclusive: 3.31% | 
CN(Cc1ccccc1)C(=O)c1[nH]cnc1C(=O)N[C@@H](CCCCNC(=O)OC(C)(C)C)C(=O)OC(C)(C)C | inconclusive: 2.09% | 
O=C(CCc1ccccc1)N(Cc1cccnc1)c1nc2c(F)cc(F)cc2s1 |  | inconclusive: 4.47 µM [rising, full curve, poor fit]
O=c1[nH]cc(C(F)(F)F)cc1NS(=O)(=O)c1ccccc1[N+](=O)[O-] | inactive: 1.04% | 
COCCN1C(=O)N(c2ccc(OC)cc2)C(=O)C1CC(=O)Nc1cccc(F)c1 (configuration not stated) | inactive: 5.21% | 
O=C(Nc1ccc2nc(-c3cccs3)[nH]c2c1)c1ccco1 |  | inconclusive: 1.46 µM [activator, full curve, poor fit]

Compound | activity change, negative = inhibition | Potency
COc1ccc(CC2SC(=Nc3ccc(F)cc3)NC2=O)cc1 (configuration not stated) | inactive: -19.8% | 
COC(=O)c1c(C(=O)OC)n(CCCN)c2ccc(C)cc12 | inconclusive: -0.408% | 
COc1ccc(CC(=O)NNC(=O)c2ccc(Br)s2)cc1OC | inconclusive: 5.14% | 
O=C(Cc1cccs1)Nc1nc(-c2ccc(F)cc2F)cs1 |  | inconclusive: 1.46 µM [rising, partial curve, poor fit]
N#Cc1ccccc1S(=O)(=O)N1CCN(S(=O)(=O)c2ccc(Br)c(C(=O)O)c2)CC1 | inactive: 2.38% | 
C=CCNC(=S)N/N=C/c1ccc(C)s1 |  | inconclusive: 5.62 µM [falling, single point]
COc1cc(/C=N/Nc2nc(C)nc3c2cnn3-c2ccccc2)ccc1O | inactive: 5.65% | 
CC1CCCCC1Nc1ncnc2sccc12 (configuration not stated) |  | inconclusive: 22.4 µM [falling, single point]
CC(=O)Nc1ccc(S[C@@H](CCN2CC[C@H](C(C)(C)C)CCC2=O)c2ccccc2)cc1 | inactive: 1.1% | 
Cn1c(SCC(=O)O)nnc1-c1ccc(NC(=O)c2ccc(Cl)c(Cl)c2)cc1 | inactive: -4.91% | 
Cc1nnc(NC(=O)CSc2nnc(CC(=O)Nc3ccccc3C)n2C)s1 | inconclusive: 5.53% | 
CSc1ccc(-c2sc(Nc3ccccc3)n[n+]2-c2ccc(F)cc2)cc1 |  | inconclusive: 20 µM [falling, single point]
Clc1ccc(C[n+]2cc(-c3ccccc3)n3c2CCCCC3)c(Cl)c1 | inconclusive: 3.97% | 
O=C(COc1ccc(Cl)cc1Br)NC1CC1 | inconclusive: 10.8% | 
O=C(Nc1ccc(OC(F)(F)C(F)F)c(NC(=O)c2cccc(F)c2)c1)c1cccc(F)c1 | inconclusive: -0.922% | 
COc1cccc(NC(=O)c2ccc3c(c2)C(=O)N(CC2CCCO2)C3=O)c1 (configuration not stated) | inconclusive: -0.816% | 
Cc1cccc(C)c1NCc1n[nH]c(=S)n1-c1ccccc1 |  | inconclusive: 35.5 µM [falling, single point]
Cc1cccc(C(c2sc3nc(-c4ccco4)nn3c2O)N2CCN(Cc3ccccc3)CC2)c1 (configuration not stated) | inactive: 0.803% | 
COc1ccc(/C=C/C(=O)NCc2cccnc2)cc1 | inactive: -3.31% | 
COc1ccc(NC(=O)C2CCN(C(=O)c3ccccc3)CC2)cc1OC | inactive: -0.574% | 
Cc1[nH]nc(-c2ccc(OCc3cnn(-c4ccccc4)c3)cc2O)c1Oc1ccccc1F | inactive: -7.59% | 

Compound | activity change, negative = inhibition | Potency
CCOC(=O)CN(C(=O)CSc1nnc(CNc2ccc(F)cc2)o1)c1ccccc1 | inactive: 5.89% | 
CCOC(=O)/C(=N\Nc1ncnc2ccccc12)c1ccc(C)cc1 |  | inconclusive: 22.4 µM [falling, partial curve]
Cc1cc(C)c2oc(=O)cc(CN3CCCCC3)c2c1 | inconclusive: 3.79% | 
CCOC(=O)N1CCN(c2c(NCc3ccccn3)c(=O)c2=O)CC1 | inconclusive: 3.77% | 
C#CCOCCOCCOCCNc1nc(N2CCN(C(=O)[C@H](CCCN=C(N)N)n3cc(C(N)[C@@H](C)CC)nn3)CC2)nc(N2CCN(C(=O)[C@H](CCCCN)n3cc([C@@H](N)[C@H](C)CC)nn3)CC2)n1 (some centres not stated) | inconclusive: 1.02% | 
COc1cc(/C=C2/C(=O)N=C(N)N2C)cc(OC)c1OC |  | inconclusive: 2.59 µM [falling, partial curve, poor fit]
CCCCc1ccc(NC(=O)COCC)cc1 | inconclusive: 12.7% | 
Cc1sc2nc(SCC(=O)N3CCOCC3)[nH]c(=O)c2c1-c1ccccc1 | inactive: -0.396% | 
CC1(C)OC2C(O1)[C@@H](CO)O[C@H]2n1cnc2c(N)ncnc21 (some centres not stated) |  | inconclusive: 17.8 µM [falling, partial curve, poor fit]
COc1ccc(NC(=O)Nc2ccc3c(c2)CCC3)cc1 | inconclusive: 11.6% | 
CCOC(=O)N1CCN(C(=O)CCn2c(=S)[nH]c3ccsc3c2=O)CC1 | inactive: -16.5% | 
N#C/C(C(=O)N1CCOCC1)=c1/s/c(=C\c2ccccn2)c(=O)n1-c1ccccc1 | inconclusive: 9.24% | 
COc1ccc2[nH]c3c(=O)n(CCCCC(=O)NCCN4CCCC4)c(=S)[nH]c3c2c1 | inconclusive: 15.9% | 
O=C(O)c1ccccc1-c1ccccc1C(=O)Nc1ccc(-c2nc3cc(Cl)ccc3o2)cc1 | inconclusive: 22.6% | 
NC(=O)C1CCN(c2nc(-c3ccc(F)cc3)cs2)CC1 | inconclusive: -4.34% | 
O=C(NCC1CCCO1)c1ccc(NC(=O)c2cccc([N+](=O)[O-])c2)cc1 (configuration not stated) | inconclusive: 1.33% | 
O=C1NC(=O)C(CC(=O)N(Cc2ccco2)C2(C(=O)NC3CCCCC3)CCCCC2)N1 (configuration not stated) | inconclusive: 15.6% | 
Cc1ccc(C)c(S(=O)(=O)N2CCN(C(=O)c3cccn3C)CC2)c1 | inconclusive: -4.68% | 
CC(C)(C)Nc1c([N+](=O)[O-])c(=O)sc2ccccc12 |  | inconclusive: 35.5 µM [falling, single point]

Sorted by count of non-hydrogen atoms (descending): part of the list above
Compound | activity change, negative = inhibition | Potency
C#CCOCCOCCOCCNc1nc(N2CCN(C(=O)[C@H](CCCN=C(N)N)n3cc(C(N)[C@@H](C)CC)nn3)CC2)nc(N2CCN(C(=O)[C@H](CCCCN)n3cc([C@@H](N)[C@H](C)CC)nn3)CC2)n1 (some centres not stated) | inconclusive: 1.02% | 
Cc1cccc(C(c2sc3nc(-c4ccco4)nn3c2O)N2CCN(Cc3ccccc3)CC2)c1 (configuration not stated) | inactive: 0.803% | 
O=C(O)c1ccccc1-c1ccccc1C(=O)Nc1ccc(-c2nc3cc(Cl)ccc3o2)cc1 | inconclusive: 22.6% | 
O=C1NC(=O)C(CC(=O)N(Cc2ccco2)C2(C(=O)NC3CCCCC3)CCCCC2)N1 (configuration not stated) | inconclusive: 15.6% | 
CCOC(=O)CN(C(=O)CSc1nnc(CNc2ccc(F)cc2)o1)c1ccccc1 | inactive: 5.89% | 
N#C/C(C(=O)N1CCOCC1)=c1/s/c(=C\c2ccccn2)c(=O)n1-c1ccccc1 | inconclusive: 9.24% | 
O=C(NCC1CCCO1)c1ccc(NC(=O)c2cccc([N+](=O)[O-])c2)cc1 (configuration not stated) | inconclusive: 1.33% | 
CCOC(=O)N1CCN(C(=O)CCn2c(=S)[nH]c3ccsc3c2=O)CC1 | inactive: -16.5% | 
CCOC(=O)/C(=N\Nc1ncnc2ccccc12)c1ccc(C)cc1 |  | inconclusive: 22.4 µM [falling, partial curve]
Cc1cccc(C)c1NCc1n[nH]c(=S)n1-c1ccccc1 |  | inconclusive: 35.5 µM [falling, single point]
COc1cc(/C=C2/C(=O)N=C(N)N2C)cc(OC)c1OC |  | inconclusive: 2.59 µM [falling, partial curve, poor fit]
COc1ccc(/C=C/C(=O)NCc2cccnc2)cc1 | inactive: -3.31% | 
CC(C)(C)Nc1c([N+](=O)[O-])c(=O)sc2ccccc12 |  | inconclusive: 35.5 µM [falling, single point]
CCCCc1ccc(NC(=O)COCC)cc1 | inconclusive: 12.7% | 

Source: PubChem BioAssay AID493014 (National Center for Advancing Translational Sciences (NCATS), 2011)
